Test results as given in PMC7819943, “Rice protein-binding microarrays: a tool to detect cis-acting elements near promoter regions in rice”.
This is one part of the list.

Sequences of proteins named here, by UniProt entry; tags and fusion partners are left off.
UniProt Q0JBA9, entry or part of it: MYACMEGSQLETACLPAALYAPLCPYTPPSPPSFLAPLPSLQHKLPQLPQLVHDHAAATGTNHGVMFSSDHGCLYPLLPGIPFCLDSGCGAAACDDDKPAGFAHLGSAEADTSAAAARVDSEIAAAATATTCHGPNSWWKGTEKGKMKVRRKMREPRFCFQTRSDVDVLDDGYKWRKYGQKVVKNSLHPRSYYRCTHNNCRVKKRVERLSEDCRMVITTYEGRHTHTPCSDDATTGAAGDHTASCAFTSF

What follows are sequences tested against OsWRKY34 (Oryza sativa, UniProt Q0JBA9 1-250) (assay: protein-binding microarray (RPBM); PBS, 2% BSA, 51.3 ng/ul salmon testes DNA, 50 uM zinc acetate, 200 nM TF, 25 C, 1 h; high values mean tight binding). Details: protein: recombinant; tags: N-terminal polyhistidine and DsRed monomer fusion (pET32a); label: CyDye5-dUTP incorporated in the synthesized complementary strand; 3' TTTTT single-stranded linker to array surface; dsDNA, one strand shown.
How it was run: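 The binding signal is fluorescence intensity per feature, in arbitrary units, read on an Axon 4000B scanner. Polyhistidine- and DsRed-tagged transcription factors (N-terminal fusions) from E. coli BL21-CodonPlus were purified on Ni–NTA and applied at 200 nM for 1 h at 25 °C to a double-stranded, BSA-blocked custom Agilent array in buffer with 50 µM zinc acetate.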

Row | Sequence | binding signal
1 | CACCACCTGCTCCACATTTTCAGCTTTGCCTTCCTTGCCACGGAGTCACCTAGTGCAG | 9560 fluorescence intensity (a.u.)
2 | GAATTCTCATGCATACACATTTCCTTTTTTTTCCCTTCAACGGAGTCACCTAGTGCAG | 9470 fluorescence intensity (a.u.)
3 | AGCTTATCCTCACTTAGTTAGTGCTTAAATGATTAATCTACGGAGTCACCTAGTGCAG | 8780 fluorescence intensity (a.u.)
4 | GTTCATATAGTACGTACTTTTATTCGTTAGTATATATGACCGGAGTCACCTAGTGCAG | 9410 fluorescence intensity (a.u.)
5 | GGAATTTCTCTTTCTACACAACTGTTTGCGTCAACATATACGGAGTCACCTAGTGCAG | 9030 fluorescence intensity (a.u.)
6 | TGCACTTCTCCACTTCACTCCTCGTCTCTTGCCGTCTTTTCGGAGTCACCTAGTGCAG | 13200 fluorescence intensity (a.u.)
7 | CAACCCGTTACTAGTTTGACCTCACCTGTGACAGGTGTTACGGAGTCACCTAGTGCAG | 9670 fluorescence intensity (a.u.)
8 | TATAGTATGCACGGTGCGCGGGGTGGTATTTTTTGTGAAACGGAGTCACCTAGTGCAG | 8630 fluorescence intensity (a.u.)
9 | GCATTTCTTGTGTCCCAATCTGGGATGGACTTGATCTGACCGGAGTCACCTAGTGCAG | 8380 fluorescence intensity (a.u.)
10 | GCCGCGACACGTTTTTGGCAACTTCTACGCGCGGCCGTCGCGGAGTCACCTAGTGCAG | 9360 fluorescence intensity (a.u.)
11 | TTTGTTTTTTCCAGTTTGGCCAACCAAGACAGATATATTACGGAGTCACCTAGTGCAG | 9660 fluorescence intensity (a.u.)
12 | TTCGATGCCACACTAATCTTCCCATAACTGAATTGTTAATCGGAGTCACCTAGTGCAG | 8750 fluorescence intensity (a.u.)
13 | GCTCGCCGCGTGCTCTCGTCATCCATCCGACCCACGCCCGCGGAGTCACCTAGTGCAG | 11000 fluorescence intensity (a.u.)
14 | CTGTTATCGAGCAATTTCAACAAGGGCGGGGCCTTAATCTCGGAGTCACCTAGTGCAG | 8870 fluorescence intensity (a.u.)
15 | CTGCTTTTATAGTTTGGTGGGCTTTTCTTTGCTAGTGGGCCGGAGTCACCTAGTGCAG | 10600 fluorescence intensity (a.u.)
16 | GCACCTCTGCATCTCTGCCATCTCCTTCCCCACCCCACCGCGGAGTCACCTAGTGCAG | 9150 fluorescence intensity (a.u.)
17 | TGAGTCCCTTCGCGCCACTTTTGCTTTGACCATGGTGAACCGGAGTCACCTAGTGCAG | 10600 fluorescence intensity (a.u.)
18 | ATCCATGTTATCTCACTGCATTTCTTGTTCATGAATATAACGGAGTCACCTAGTGCAG | 10700 fluorescence intensity (a.u.)
19 | ATGTATGCCCCTATGTAGTTTGCCCTCAGTTTTTATTTATCGGAGTCACCTAGTGCAG | 10200 fluorescence intensity (a.u.)
20 | TGTTTCTATCTCGTATCTTCTCTTCCAAGCATGTATTTCCCGGAGTCACCTAGTGCAG | 8650 fluorescence intensity (a.u.)
21 | TATTGTTTATTGGGTGCTTGATTCTCGTGGCCAGGCCAACCGGAGTCACCTAGTGCAG | 13000 fluorescence intensity (a.u.)

Row | Sequence | binding signal
22 | GTATCTCCTGCATGAGCACCAGGCTTTTATTCATTTTTGTCGGAGTCACCTAGTGCAG | 8910 fluorescence intensity (a.u.)
23 | GCTCGCATTTCCACTCTCTCTATATCTTGTGTGGCGCACTCGGAGTCACCTAGTGCAG | 9040 fluorescence intensity (a.u.)
24 | TTATGGCACGCTAAATAACCCGGCTGATCAGAGTGACGTCCGGAGTCACCTAGTGCAG | 8020 fluorescence intensity (a.u.)
25 | CGCCTCCGGCCTCCTCACGCACTGCCGCACCACGTCGCACCGGAGTCACCTAGTGCAG | 9020 fluorescence intensity (a.u.)
26 | GTGACGGCGCCTCCAGCTCCATCGCTTGCCTTTCTCTTTGCGGAGTCACCTAGTGCAG | 9270 fluorescence intensity (a.u.)
27 | CGTCGTCTCGCCGCCACCGATCCCCGCGCCACCGCCGTCGCGGAGTCACCTAGTGCAG | 9610 fluorescence intensity (a.u.)
28 | GTGGTTTCATCTATTTTGTGTTGTTTACTCGTATCTGTTACGGAGTCACCTAGTGCAG | 10600 fluorescence intensity (a.u.)
29 | ATAAGTGAGAAGGATTGGGGTGATCATTGTCTGTAATTCACGGAGTCACCTAGTGCAG | 11100 fluorescence intensity (a.u.)
30 | GAGACCATCCAACGCATCCATTCCGTCCTCTTCGATTGCTCGGAGTCACCTAGTGCAG | 8580 fluorescence intensity (a.u.)
31 | ATCACTAACCTCCTTTTCATCCCTCTCTACCGCTTTGCCTCGGAGTCACCTAGTGCAG | 11000 fluorescence intensity (a.u.)
32 | CATAGGAACATTTTGACTCCAGTTACCTTCTGACCATTGGCGGAGTCACCTAGTGCAG | 9710 fluorescence intensity (a.u.)
33 | CCGCTGATTCCGTTTGCCCTTGAGATGGCCCTGCCAACATCGGAGTCACCTAGTGCAG | 8440 fluorescence intensity (a.u.)
34 | TGGGGCTTCTGGTGTGCTCGGTGGTGTTCGCCGCGGCGGCCGGAGTCACCTAGTGCAG | 14200 fluorescence intensity (a.u.)
35 | GTTCGTGCCAGGGCCGTTCAACCTCGGAAAGTACGGGGTTCGGAGTCACCTAGTGCAG | 8240 fluorescence intensity (a.u.)
36 | CCCTACCACCGATGCCATGAAATTTCTTGTCGCTGCATCTCGGAGTCACCTAGTGCAG | 9300 fluorescence intensity (a.u.)
37 | AACCCAACCCACCACCGCGAGCACCAAATCCAATCCATAGCGGAGTCACCTAGTGCAG | 9080 fluorescence intensity (a.u.)
38 | ACTATAATCAAATCATCCACCATATCGTCGACCGACCAACCGGAGTCACCTAGTGCAG | 8310 fluorescence intensity (a.u.)
39 | TCAACTCACTTTTGTTAATTTTGTATATTGTTTGTGCTTTCGGAGTCACCTAGTGCAG | 8100 fluorescence intensity (a.u.)
40 | CTGCCCTTTACGCCCGGGGACCATGCATCATATCGACAACCGGAGTCACCTAGTGCAG | 8470 fluorescence intensity (a.u.)
41 | GGGGCTTAAATCAAGTAGCTAAGAGGGCGGTGGTGGCTGACGGAGTCACCTAGTGCAG | 8320 fluorescence intensity (a.u.)
42 | GTGATGTGTTCGACCGGGCCCTGCTAGCGATTGATCAAAACGGAGTCACCTAGTGCAG | 8760 fluorescence intensity (a.u.)

Copied from the list:
Value for TCAACTCACTTTTGTTAATTTTGTATATTGTTTGTGCTTTCGGAGTCACCTAGTGCAG under binding signal: 8100 fluorescence intensity (a.u.)
Value for GAGACCATCCAACGCATCCATTCCGTCCTCTTCGATTGCTCGGAGTCACCTAGTGCAG under binding signal: 8580 fluorescence intensity (a.u.)
Value for ATCACTAACCTCCTTTTCATCCCTCTCTACCGCTTTGCCTCGGAGTCACCTAGTGCAG under binding signal: 11000 fluorescence intensity (a.u.)
